Reference: the supplement of paper PMC12819154, “High-throughput peptide-centric local stability assay extends protein–ligand identification to membrane proteins, tissues and bacteria” (Nature Structural & Molecular Biology, 2025)
The list shows a part of the results. Small differences around the control level are noise.

The chains behind the UniProt entries cited, without tags or fusion partners. Where a name states a change or a piece, a line headed by the entry shows the natural chain unless it says otherwise.
UniProt Q9H8H0: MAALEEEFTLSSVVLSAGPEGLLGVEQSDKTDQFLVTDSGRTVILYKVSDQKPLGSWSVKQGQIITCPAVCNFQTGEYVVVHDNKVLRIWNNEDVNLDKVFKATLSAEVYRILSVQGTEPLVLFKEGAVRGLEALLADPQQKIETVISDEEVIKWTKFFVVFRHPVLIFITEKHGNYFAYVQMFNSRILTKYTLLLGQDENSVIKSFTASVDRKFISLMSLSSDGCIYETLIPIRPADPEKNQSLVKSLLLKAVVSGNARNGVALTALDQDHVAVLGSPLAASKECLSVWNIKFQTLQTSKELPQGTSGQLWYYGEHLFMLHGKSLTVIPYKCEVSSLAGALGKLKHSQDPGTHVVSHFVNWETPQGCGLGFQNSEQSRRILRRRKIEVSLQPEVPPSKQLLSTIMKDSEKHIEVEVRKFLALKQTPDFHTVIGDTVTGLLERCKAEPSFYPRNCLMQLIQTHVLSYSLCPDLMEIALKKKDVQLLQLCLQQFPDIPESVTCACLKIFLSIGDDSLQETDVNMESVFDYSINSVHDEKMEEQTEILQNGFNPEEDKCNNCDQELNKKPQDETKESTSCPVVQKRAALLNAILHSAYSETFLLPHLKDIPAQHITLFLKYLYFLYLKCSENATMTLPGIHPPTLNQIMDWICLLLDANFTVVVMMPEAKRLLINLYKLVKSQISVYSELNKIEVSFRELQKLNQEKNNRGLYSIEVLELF
UniProt Q9H9L7: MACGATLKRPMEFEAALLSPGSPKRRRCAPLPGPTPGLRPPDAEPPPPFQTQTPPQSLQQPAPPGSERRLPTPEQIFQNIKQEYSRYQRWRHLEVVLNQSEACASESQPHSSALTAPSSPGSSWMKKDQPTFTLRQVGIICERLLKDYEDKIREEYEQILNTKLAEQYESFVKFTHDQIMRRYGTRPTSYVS
UniProt Q9H9Y4: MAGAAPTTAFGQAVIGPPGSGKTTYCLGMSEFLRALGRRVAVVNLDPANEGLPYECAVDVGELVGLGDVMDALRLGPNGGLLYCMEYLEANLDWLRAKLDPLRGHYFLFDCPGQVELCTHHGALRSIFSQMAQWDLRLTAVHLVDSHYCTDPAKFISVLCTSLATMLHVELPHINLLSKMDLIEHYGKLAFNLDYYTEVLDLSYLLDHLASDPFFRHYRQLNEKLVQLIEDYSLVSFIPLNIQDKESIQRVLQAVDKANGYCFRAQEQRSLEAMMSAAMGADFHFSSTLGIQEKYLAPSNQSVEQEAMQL
UniProt Q9H1J7: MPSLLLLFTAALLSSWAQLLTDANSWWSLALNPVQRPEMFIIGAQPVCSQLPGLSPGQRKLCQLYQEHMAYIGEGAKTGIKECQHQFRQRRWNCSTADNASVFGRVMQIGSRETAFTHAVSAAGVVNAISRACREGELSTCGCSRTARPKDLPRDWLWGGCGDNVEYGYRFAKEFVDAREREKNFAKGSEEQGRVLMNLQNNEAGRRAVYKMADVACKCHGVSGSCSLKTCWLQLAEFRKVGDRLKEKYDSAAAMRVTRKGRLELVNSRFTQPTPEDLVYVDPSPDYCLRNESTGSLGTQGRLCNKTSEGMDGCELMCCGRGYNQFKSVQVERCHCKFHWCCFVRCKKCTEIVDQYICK
UniProt Q9H7C9: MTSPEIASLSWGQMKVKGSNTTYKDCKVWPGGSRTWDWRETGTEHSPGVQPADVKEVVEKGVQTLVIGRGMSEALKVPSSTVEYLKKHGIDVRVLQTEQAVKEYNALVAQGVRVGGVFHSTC
UniProt Q9H1P3, whole entry: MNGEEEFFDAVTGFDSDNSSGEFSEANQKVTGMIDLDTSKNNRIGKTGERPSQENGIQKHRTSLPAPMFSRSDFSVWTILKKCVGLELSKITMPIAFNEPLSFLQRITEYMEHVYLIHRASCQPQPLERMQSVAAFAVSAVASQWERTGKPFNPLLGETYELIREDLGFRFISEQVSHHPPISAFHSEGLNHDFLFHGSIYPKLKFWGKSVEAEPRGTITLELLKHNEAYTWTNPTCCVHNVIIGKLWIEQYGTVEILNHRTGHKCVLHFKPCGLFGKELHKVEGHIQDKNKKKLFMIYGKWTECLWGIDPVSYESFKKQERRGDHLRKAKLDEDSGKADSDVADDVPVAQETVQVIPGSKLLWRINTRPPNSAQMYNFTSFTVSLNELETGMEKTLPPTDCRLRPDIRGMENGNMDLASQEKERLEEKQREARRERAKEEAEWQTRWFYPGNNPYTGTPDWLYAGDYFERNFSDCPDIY
UniProt Q9HC07: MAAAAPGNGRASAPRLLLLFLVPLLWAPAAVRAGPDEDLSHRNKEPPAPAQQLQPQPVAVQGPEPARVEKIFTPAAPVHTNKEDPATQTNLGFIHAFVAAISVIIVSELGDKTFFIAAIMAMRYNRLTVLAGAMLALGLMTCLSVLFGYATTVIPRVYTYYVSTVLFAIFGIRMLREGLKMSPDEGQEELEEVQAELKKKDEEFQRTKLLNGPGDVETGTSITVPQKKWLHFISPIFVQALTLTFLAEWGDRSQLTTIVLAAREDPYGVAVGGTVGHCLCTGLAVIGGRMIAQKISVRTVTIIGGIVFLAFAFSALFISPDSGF
UniProt Q9H410: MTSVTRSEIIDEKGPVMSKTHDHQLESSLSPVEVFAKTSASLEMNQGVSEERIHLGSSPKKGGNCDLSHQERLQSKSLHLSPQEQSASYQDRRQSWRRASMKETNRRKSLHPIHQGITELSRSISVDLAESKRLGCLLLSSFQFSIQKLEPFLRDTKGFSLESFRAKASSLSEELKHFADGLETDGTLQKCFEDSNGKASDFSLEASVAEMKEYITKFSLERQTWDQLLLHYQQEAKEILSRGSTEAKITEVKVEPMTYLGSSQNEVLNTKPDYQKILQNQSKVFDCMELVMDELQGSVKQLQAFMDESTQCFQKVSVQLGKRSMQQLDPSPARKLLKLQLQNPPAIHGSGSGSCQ
UniProt Q9H1Y0: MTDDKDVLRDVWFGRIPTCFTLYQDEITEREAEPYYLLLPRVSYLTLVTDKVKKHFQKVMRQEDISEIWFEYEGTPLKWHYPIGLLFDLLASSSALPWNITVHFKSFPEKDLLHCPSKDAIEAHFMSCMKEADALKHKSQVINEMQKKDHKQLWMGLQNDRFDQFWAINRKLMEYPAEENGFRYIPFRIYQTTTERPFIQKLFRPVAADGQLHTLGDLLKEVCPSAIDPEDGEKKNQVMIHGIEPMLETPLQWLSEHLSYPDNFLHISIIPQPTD
UniProt Q9H9A5, whole entry: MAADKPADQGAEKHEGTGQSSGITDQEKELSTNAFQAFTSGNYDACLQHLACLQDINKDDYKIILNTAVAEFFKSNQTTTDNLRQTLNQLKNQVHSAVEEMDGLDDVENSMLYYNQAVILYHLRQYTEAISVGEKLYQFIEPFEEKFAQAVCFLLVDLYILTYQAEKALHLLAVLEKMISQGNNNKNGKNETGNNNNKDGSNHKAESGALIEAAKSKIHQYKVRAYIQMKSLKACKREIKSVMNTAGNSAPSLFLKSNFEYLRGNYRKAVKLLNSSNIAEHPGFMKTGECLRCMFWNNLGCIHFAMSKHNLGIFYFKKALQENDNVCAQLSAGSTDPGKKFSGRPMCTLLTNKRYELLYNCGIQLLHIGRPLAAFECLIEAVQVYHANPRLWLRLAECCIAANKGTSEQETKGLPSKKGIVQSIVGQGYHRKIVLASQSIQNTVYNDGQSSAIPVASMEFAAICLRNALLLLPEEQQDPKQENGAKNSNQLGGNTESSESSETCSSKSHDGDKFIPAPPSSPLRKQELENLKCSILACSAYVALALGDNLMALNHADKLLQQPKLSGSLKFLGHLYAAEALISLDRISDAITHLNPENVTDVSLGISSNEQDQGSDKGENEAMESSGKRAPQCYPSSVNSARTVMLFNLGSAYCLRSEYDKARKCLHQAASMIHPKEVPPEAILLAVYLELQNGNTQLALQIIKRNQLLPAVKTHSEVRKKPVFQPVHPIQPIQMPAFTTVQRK
UniProt Q9H1K6: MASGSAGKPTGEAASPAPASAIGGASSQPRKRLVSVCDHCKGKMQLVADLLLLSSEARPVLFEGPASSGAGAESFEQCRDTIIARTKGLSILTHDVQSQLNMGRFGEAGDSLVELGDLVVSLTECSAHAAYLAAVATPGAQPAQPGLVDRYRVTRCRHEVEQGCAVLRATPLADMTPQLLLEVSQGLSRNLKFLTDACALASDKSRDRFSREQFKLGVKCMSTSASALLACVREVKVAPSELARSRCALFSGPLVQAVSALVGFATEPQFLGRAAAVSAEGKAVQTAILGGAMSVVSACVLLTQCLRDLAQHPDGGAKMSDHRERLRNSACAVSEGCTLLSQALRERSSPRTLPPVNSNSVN
UniProt Q9H3C7, whole entry: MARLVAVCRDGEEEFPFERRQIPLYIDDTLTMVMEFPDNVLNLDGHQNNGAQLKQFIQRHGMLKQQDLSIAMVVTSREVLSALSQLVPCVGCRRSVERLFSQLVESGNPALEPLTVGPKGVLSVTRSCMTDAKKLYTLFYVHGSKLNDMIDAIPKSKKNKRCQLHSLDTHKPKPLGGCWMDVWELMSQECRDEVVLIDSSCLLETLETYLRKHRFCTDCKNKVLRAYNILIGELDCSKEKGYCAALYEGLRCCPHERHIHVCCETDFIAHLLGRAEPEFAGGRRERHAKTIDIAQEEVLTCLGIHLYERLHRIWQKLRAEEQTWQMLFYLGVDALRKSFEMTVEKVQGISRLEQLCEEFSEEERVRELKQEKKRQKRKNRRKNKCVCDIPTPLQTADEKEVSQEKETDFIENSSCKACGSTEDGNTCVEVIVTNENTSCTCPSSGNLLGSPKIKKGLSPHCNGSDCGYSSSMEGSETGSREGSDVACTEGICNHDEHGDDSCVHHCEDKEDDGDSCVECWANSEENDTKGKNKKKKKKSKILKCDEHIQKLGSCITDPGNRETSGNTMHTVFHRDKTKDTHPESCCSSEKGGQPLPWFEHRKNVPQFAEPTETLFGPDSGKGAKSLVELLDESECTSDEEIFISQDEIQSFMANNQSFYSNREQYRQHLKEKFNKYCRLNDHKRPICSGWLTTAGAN
UniProt Q9H8H2: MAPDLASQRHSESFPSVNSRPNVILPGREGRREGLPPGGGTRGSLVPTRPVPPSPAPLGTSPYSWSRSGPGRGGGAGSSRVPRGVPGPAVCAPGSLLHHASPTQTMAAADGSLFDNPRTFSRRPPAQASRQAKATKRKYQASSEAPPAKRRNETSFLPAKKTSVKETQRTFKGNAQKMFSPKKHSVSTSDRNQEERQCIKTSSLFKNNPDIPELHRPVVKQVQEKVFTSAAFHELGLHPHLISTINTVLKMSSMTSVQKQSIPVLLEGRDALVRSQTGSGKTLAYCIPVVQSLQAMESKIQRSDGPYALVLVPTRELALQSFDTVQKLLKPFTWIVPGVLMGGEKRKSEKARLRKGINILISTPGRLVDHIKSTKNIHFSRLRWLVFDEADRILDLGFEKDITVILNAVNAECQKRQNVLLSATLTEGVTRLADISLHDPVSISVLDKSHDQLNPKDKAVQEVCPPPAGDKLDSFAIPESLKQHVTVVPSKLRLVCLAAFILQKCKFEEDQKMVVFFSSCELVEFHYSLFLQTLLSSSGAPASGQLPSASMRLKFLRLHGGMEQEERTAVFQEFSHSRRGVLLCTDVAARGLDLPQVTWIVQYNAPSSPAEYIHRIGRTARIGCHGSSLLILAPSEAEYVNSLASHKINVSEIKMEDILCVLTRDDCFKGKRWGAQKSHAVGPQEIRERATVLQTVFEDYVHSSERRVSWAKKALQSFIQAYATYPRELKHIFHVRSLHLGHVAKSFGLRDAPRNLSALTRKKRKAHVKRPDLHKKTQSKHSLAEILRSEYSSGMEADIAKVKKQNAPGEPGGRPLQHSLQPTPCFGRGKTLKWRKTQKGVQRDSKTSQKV
UniProt Q9H9D4: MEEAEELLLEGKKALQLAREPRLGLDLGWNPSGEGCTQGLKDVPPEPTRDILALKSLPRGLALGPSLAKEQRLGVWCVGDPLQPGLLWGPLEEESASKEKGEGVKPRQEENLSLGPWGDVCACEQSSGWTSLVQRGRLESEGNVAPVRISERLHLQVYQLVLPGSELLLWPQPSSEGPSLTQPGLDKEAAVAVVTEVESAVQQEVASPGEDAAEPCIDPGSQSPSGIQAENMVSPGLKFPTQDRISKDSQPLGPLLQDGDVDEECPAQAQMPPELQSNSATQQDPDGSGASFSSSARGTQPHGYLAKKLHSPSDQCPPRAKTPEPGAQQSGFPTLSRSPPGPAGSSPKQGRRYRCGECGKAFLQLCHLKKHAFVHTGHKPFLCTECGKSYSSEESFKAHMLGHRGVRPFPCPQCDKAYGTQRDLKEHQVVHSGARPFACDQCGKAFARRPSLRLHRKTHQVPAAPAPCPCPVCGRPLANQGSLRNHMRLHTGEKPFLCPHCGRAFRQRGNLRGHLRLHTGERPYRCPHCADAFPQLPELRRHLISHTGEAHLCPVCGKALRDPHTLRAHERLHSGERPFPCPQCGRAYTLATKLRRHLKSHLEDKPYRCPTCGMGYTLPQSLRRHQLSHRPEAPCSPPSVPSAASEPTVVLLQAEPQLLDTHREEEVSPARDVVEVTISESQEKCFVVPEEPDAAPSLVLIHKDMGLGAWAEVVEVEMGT

compound: Cc1nc(Nc2ncc(C(=O)Nc3c(C)cccc3Cl)s2)cc(N2CCN(CCO)CC2)n1 [dasatinib]; experiment: log2 fold change of tryptic peptide abundance, ligand vs vehicle (limited proteolysis) (log2 ratio); higher = more trypsin-susceptible (destabilized); conditions: ligand concentration: 5 uM; sample: K562 cleared lysate

Target | log2 fold change
RSAD1 (peptide sequence: THSACDALR, peptide start residue: 171) (UniProt Q9HA92) | -0.415
SMARCAD1 (peptide sequence: VLGCILSELK, peptide start residue: 858) (UniProt Q9H4L7) | -0.23
METTL8 (peptide sequence: TESDFSNLDSEKHK, peptide start residue: 169) (UniProt Q9H825) | -0.558
NOL11 (peptide sequence: QLLSTIMKDSEK, peptide start residue: 400) (UniProt Q9H8H0) | 0.197
TNS1 (peptide sequence: AGSLPNYATINGK, peptide start residue: 1502) (UniProt Q9HBL0) | -0.125
JMJD4 (peptide sequence: VDTSAFSPQPK, peptide start residue: 437) (UniProt Q9H9V9) | -0.577
YTHDC2 (peptide sequence: YQVFMLHSNMQTSDQKK, peptide start residue: 656) (UniProt Q9H6S0) | 1.15
AKIRIN1 (peptide sequence: RLPTPEQIFQNIK, peptide start residue: 69) (UniProt Q9H9L7) | 0.821
RPAP3 (peptide sequence: QNVVKPIDNPPHPGSTKPLK, peptide start residue: 414) (UniProt Q9H6T3) | -0.842
GPN2 (peptide sequence: LTAVHLVDSHYCTDPAK, peptide start residue: 138) (UniProt Q9H9Y4) | 0.348
UniProt Q9H1J7 (peptide sequence: VLMNLQNNEAGRR, peptide start residue: 195) | 0.162
CENPJ (peptide sequence: WSSTHSR, peptide start residue: 1017) (UniProt Q9HC77) | -0.763
PTPN23 (peptide sequence: DFYADLESK, peptide start residue: 677) (UniProt Q9H3S7) | 0.126
CARD9 (peptide sequence: KVQDLTALLSSKDDFIK, peptide start residue: 129) (UniProt Q9H257) | -0.227
UniProt Q9H7C9 (peptide sequence: VLQTEQAVK, peptide start residue: 94) | 0.131
C1orf198 (peptide sequence: ASQGSQALK, peptide start residue: 158) (UniProt Q9H425) | 0.504
UniProt Q9HC36 (peptide sequence: ASDHGWVCDQR, peptide start residue: 302) | 0.163
TRIOBP (peptide sequence: LSEEIDQLR, peptide start residue: 2251) (UniProt Q9H2D6) | 0.212
VPS37B (peptide sequence: RIPPPPPPVPAGR, peptide start residue: 206) (UniProt Q9H9H4) | -0.176

Copied from the list:
log2 fold change with SMARCAD1 (peptide sequence: VLGCILSELK, peptide start residue: 858) (UniProt Q9H4L7) is entered as -0.23
log2 fold change with VPS37B (peptide sequence: RIPPPPPPVPAGR, peptide start residue: 206) (UniProt Q9H9H4) is entered as -0.176

Next part.

Target | log2 fold change
GRPEL1 (peptide sequence: FDPYEHEALFHTPVEGK, peptide start residue: 170) (UniProt Q9HAV7) | 0.258
OSBPL2 (peptide sequence: TGERPSQENGIQK, peptide start residue: 47) (UniProt Q9H1P3) | 0.247
TMEM165 (peptide sequence: KKDEEFQR, peptide start residue: 199) (UniProt Q9HC07) | 0.136
GORASP2 (peptide sequence: IPTRPFEEGK, peptide start residue: 202) (UniProt Q9H8Y8) | -0.456
CXorf56 (peptide sequence: RLQELAELEAKK, peptide start residue: 198) (UniProt Q9H5V9) | -0.576
DSN1 (peptide sequence: SISVDLAESKR, peptide start residue: 123) (UniProt Q9H410) | -0.116
POFUT1 (peptide sequence: VAYCFEVAAQR, peptide start residue: 123) (UniProt Q9H488) | -0.32
ISG20L2 (peptide sequence: NAPQNSTQAHSENK, peptide start residue: 154) (UniProt Q9H9L3) | 0.288
ATG5 (peptide sequence: IYQTTTERPFIQK, peptide start residue: 189) (UniProt Q9H1Y0) | -0.322
MRPL46 (peptide sequence: FLGNAPCGHYTFKFPQAMR, peptide start residue: 204) (UniProt Q9H2W6) | -0.155
SUDS3 (peptide sequence: RKPAPAQLNYLLTDEQIMEDLR, peptide start residue: 200) (UniProt Q9H7L9) | -0.0793
CNOT10 (peptide sequence: AESGALIEAAK, peptide start residue: 205) (UniProt Q9H9A5) | -0.286
TLNRD1 (peptide sequence: LVSVCDHCK, peptide start residue: 33) (UniProt Q9H1K6) | -0.255
ZCCHC4 (peptide sequence: RPSQLLYPLENKK, peptide start residue: 156) (UniProt Q9H5U6) | 0.455
GGNBP2 (peptide sequence: HIHVCCETDFIAHLLGR, peptide start residue: 258) (UniProt Q9H3C7) | -0.267
DDX31 (peptide sequence: CKFEEDQK, peptide start residue: 505) (UniProt Q9H8H2) | 0.368
UniProt Q9H6Q4 (peptide sequence: LLHTQYHAVEK, peptide start residue: 457) | 0.342
UniProt Q9H9D4 (peptide sequence: LHTGEKPFLCPHCGR, peptide start residue: 489) | 0.17
